From patent US20060165706A1
No constants are given. Whether binding was seen depends on the method and setting. Some entries that bind do so weakly or less than the wild type.

Chains of the proteins cited; added tags and fusions are not shown. Lines headed by an entry give the natural chain unless they say otherwise; changes in a name come on top.
UniProt P16410: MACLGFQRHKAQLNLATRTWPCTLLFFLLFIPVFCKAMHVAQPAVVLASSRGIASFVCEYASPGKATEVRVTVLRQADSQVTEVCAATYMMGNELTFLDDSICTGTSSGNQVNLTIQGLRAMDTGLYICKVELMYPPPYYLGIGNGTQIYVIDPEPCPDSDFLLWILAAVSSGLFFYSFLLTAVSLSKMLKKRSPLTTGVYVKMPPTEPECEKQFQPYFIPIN

Tests used:
[1] = target: human CTLA4-Ig (human) (UniProt P16410); test: ELISA on coated human CTLA4-Ig (10 ug/ml), AP anti-mouse detection
[2] = target: CTLA4 on CTLA4-expressing CHO cells (human) (UniProt P16410); test: FACS, direct staining of CHO.CTLA4 cells with 125 ng FITC-labeled murine CTLA4-26B (key in FIG. 6D)
[3] = target: human CTLA4-Ig (human) (UniProt P16410); test: ELISA on coated human CTLA4-Ig (figure legend)
[4] = target: human CTLA4-Ig (human) (UniProt P16410); test: ELISA on plate-coated human CTLA4-Ig (10 ug/ml); serial dilutions of antibody, AP-goat anti-mouse, ABTS, OD 405 nm
[5] = target: CTLA4 on CTLA4-expressing CHO cells (human) (UniProt P16410); test: FACS competition on CHO.CTLA4 cells: 125 ng FITC-CTLA4-26B with unlabeled competitor (key in FIG. 6D)
[6] = target: human CTLA4-Ig (human) (UniProt P16410); test: inhibition ELISA on plate-coated human CTLA4-Ig (10 ug/ml); antibody titrated, then biotin-CD86-Ig at 0.66 ug/ml as the blocked ligand; neutravidin-AP, ABTS
[7] = target: human CTLA4-Ig (human) (UniProt P16410); test: ELISA competition assay on human CTLA4-Ig (figure legend)
[8] = target: human CTLA4-Ig (human) (UniProt P16410); test: competition ELISA on plate-coated human CTLA4-Ig (10 ug/ml); cold competitor titrated against biotinylated murine CTLA4-26B; streptavidin-peroxidase, ABTS, O.D. 415 nm
[9] = target: human CTLA4-Ig (human) (UniProt P16410); test: inhibition ELISA on plate-coated human CTLA4-Ig (10 ug/ml); antibody titrated, then biotin-CD80-Ig at 0.66 ug/ml as the blocked ligand; neutravidin-AP, ABTS

Measured: binding

B1: murine anti-human CTLA4 monoclonal antibody number 26 (antibody, V domains shown)
VH: QVQLKESGPGLVAPSQSLSITCTVSGFSLTSYGVYWVRQPPGKGLEWLGVIWAGGTTNYNSALMSRLSISKDNSKSQVFLKMSSLQTDDTAMYYCARGPPHAMMKRGYAMDYWGQGTSVIVSS
VL: QNVLTQSPAIMPASPGEKVTMTCSATSSITYMSWYQQKSGSSPRLLIYDTSNLASGVPVRFSGSGSGTSYSLTISRMEAEDAATYYCQQWSSYPLTFGAGTKLELK
binds: all assays above

B2: humanized anti-CTLA4 antibody 26, IgG1 isotype (antibody, V domains shown)
VH: QVQLQESGPGLVKPSQTLSLTCTVSGFSLTSYGVYWVRQPPGKGLEWLGVIWAGGTTNYNSALMSRLTISKDTSKNQVSLKLSSVTAADTAVYYCARGPPHAMMKRGYAMDYWGQGTLVTVSS
VL: DIQMTQSPSSLSASVGDRVTITCSATSSITYMSWYQQKPGKAPKLLIYDTSNLASGVPSRFSGSGSGTDYTLTISSLQPEDFATYYCQQWSSYPLTFGGGTKVEIK
binds: [5]
